Measurements taken from patent US9851354B2, “Methods of treating fragile X syndrome and related disorders” (Alcobra Ltd., priority 2013, dated 2017).
At least one compound was matched to its structure with a doubt left.

How the values were obtained:
Design in all cases: key: Reduction of deficit (Y/N); Reduction of deficit (Y/N)
ERK [1] = assay: Brain phosphorylation of ERK (western blot); format: in vivo, mouse
Protocol: (§1) In all cases, saline was used as a vehicle (control).
(§2) The Ras-Mek-ERK and PI3K-Akt-mToR signaling pathways are involved in mediating activity dependent alterations in gene transcription underlying changes in synaptic plasticity (Klann and Dever, 2004). Phosphorylated ERK and Akt protein expression was measured by western blot analysis as previously described by Lopez Verrilli (Lopez Verrilli et al., 2009). The antibodies employed were anti-phosphospecific antibodies against Akt (1/1000) and kinase (ERK) 1/2 (1/2000) (Cell Signaling Technology, Danvers, Mass., USA). The antibody against phospho-ERK detects phosphorylation at phospho-ERK 1/2 (Thr202/Tyr204) whereas the antibody against phospho-Akt detects phosphorylation at phospho-Akt (Thr308). Total Akt and ERK 1/2 protein content and phosphorylated ERK and Akt were evaluated by blotting membranes with antiphospho-Akt (1/1000) and antiphospho-ERK antibodies (1/2000) (Cell Signaling Technology, Danvers, Mass., USA). Akt or ERK phosphorylation was normalized to protein content in the same sample and expressed as % of change with respect to basal conditions, considering basal levels as 100%. Protein loading was evaluated by stripping and re-blotting membranes with j-actin antibody (1/1000) (Sigma-Aldrich, St. Louis, Mo., USA). Phosphorylated ERK and Akt protein expression in blood lymphocytes was measured by flow cytometry. For lymphocyte biomarker determinations, a FACStar plus (Becton Dickinson) was used with the excitation laser tuned at 488 nm and green fluorescence from FITC (GST) was collected through a 515-545 nm bandpass filter. The mean FITC fluorescence Intensity was calculated in relation to the fluorescence of reference cells. The mean cellular fluorescence intensity (MFI) is directly proportional to the mean number of Ab molecules bound per cell.

Akt [2] = assay: Brain phosphorylation of Akt (western blot); format: in vivo, mouse
Protocol: as §1, §2

Akt [3] = assay: Lymphocyte pAkt (flow cytometry); format: in vivo, mouse; conditions: 2 month old mice
Protocol: as §1, §2

ERK [4] = assay: Lymphocyte pERK (flow cytometry); format: in vivo, mouse; conditions: 2 month old mice
Protocol: as §1, §2

GSK3β [5] = assay: Brain phosphorylation of GSK3β; format: in vivo, mouse
GSK3β [6] = assay: Lymphocyte pGSK3β; format: in vivo, mouse; conditions: 2 month old mice
S6K1 = assay: Brain region pS6K1; format: in vivo, mouse; conditions: 2 month old mice, 150 mg/kg ip
[7] = test system: primary hippocampal neurons from Fmr1 knockout mice; assay: Dendritic filopodia density and maturation in vitro; format: cell-based, mouse; conditions: 300 μM
Protocol: as §1
Hippocampal cell cultures were prepared from wild type and Fmr1 KO fetal mice at embryonic day of gestation 17.5 (E17.5). Mice were killed by cervical dislocation and dissociated hippocampal cells were plated in 15 mm multi well vessels (Falcon Primaria). After 5 d in vitro, green fluorescent protein (GFP) was transfected to facilitate monitoring dendritic spine morphogenesis after drug treatment (Ethell and Yamaguchi, 1999; Ethell et al., 2001, Henkemeyer et al., 2003). Dendritic spines were formed at around 16 days in vitro (DIV).
Filopodia density of GFP transfected neurons was quantified by performing Sholl analyses of stacked Zeiss confocal generated images (40× objective, stack of 20×0.2 μm). With Metamorph software, concentric equally spaced circles (every 20 μm) were drawn around the cell soma of each neuron and subsequently, the amount of filopodia was counted per circle. Averages of counts were compared with unpaired two-tailed Student's T-tests.
Spine maturity of GFP transfected neurons was analyzed with Metamorph software (Molecular Devices, Sunnyvale, Calif.). Two distal dendritic segments of 70 100 μm were chosen per neuron for spine morphometric analysis. For each spine, the length and the width were measured. The length was defined as the distance from the base to the tip of the protrusion; whereas width was defined as the maximum distance perpendicular to the long axis of the spine. Measurements were compared with unpaired two tailed Student's T-tests and ANOVA corrected for multiple comparisons.

[8] = test system: hippocampal slices from Fmr1 knockout or WT mice; assay: De novo hippocampal protein synthesis in vitro (SUnSET); format: cell-based, mouse; conditions: 300 μM
Protocol: as §1
Transverse hippocampal slices (400 μm) were obtained from 6-week-old Fmr1 knockout and WT mice. A protein synthesis assay was performed as previously described using the nonradioactive fluorescence-activated cell sorting-based assay, surface sensing of translation (SUnSET) method, which allows the monitoring and quantification of global protein synthesis in individual mammalian cells and in heterogeneous cell populations. (Hoeffer, 2011).

Question: Which “Reduction of deficit (Y/N): Hippocampal pERK” value (ERK [1]; 2 month old mice, 150 mg/kg ip) does the source give for Cc1ncc(CO)c(CO)c1O.O=C1CC[C@@H](C(=O)O)N1 [metadoxine, pyridoxol L,2-pyrrolidon-5 carboxylate] here?
Answer: The value was “Y”.

Question: What about the “Reduction of deficit (Y/N): Prefrontal cortex pERK” value (ERK [1]; 2 month old mice, 150 mg/kg ip) of the same compound?
Answer: Its value is “Y”.

Question: What about the “Reduction of deficit (Y/N): Striatum pERK” value (ERK [1]; 2 month old mice, 150 mg/kg ip) of the same compound?
Answer: The value was “Y”.

Question: And the “Reduction of deficit (Y/N): Phosphorylation of brain ERK” value (ERK [1]; 6 month old mice, 150 mg/kg)?
Answer: The value was “Y”.

Question: And the “Reduction of deficit (Y/N): Hippocampal pAkt” value (Akt [2]; 2 month old mice, 150 mg/kg ip)?
Answer: Its value is “Y”.

Question: And the “Reduction of deficit (Y/N): Prefrontal cortex pAkt” value (Akt [2]; 2 month old mice, 150 mg/kg ip)?
Answer: Its value is “Y”.

Question: What about the “Reduction of deficit (Y/N): Striatum pAkt” value (Akt [2]; 2 month old mice, 150 mg/kg ip) of the same compound?
Answer: Its value is “Y”.

Question: And the “Reduction of deficit (Y/N): Phosphorylation of brain Akt” value (Akt [2]; 6 month old mice, 150 mg/kg)?
Answer: The value was “Y”.

Question: And the “Reduction of deficit (Y/N): Lymphocyte pAkt” value (from here on “Reduction … Lymphocyte pAkt”) (Akt [3]; 150 mg/kg ip)?
Answer: The value was “Y”.

Question: And the “Reduction … Lymphocyte pAkt” value (Akt [3]; 150 mg/kg po)?
Answer: The value was “Y”.

Question: And the “Reduction … Lymphocyte pAkt” value (Akt [3]; 300 mg/kg po)?
Answer: Its value is “Y”.

Question: And the “Reduction of deficit (Y/N): Lymphocyte pERK” value (“Reduction … Lymphocyte pERK” below) (ERK [4]; 150 mg/kg ip)?
Answer: The value was “Y”.

Question: And the “Reduction … Lymphocyte pERK” value (ERK [4]; 150 mg/kg po)?
Answer: Its value is “Y”.

Question: And the “Reduction … Lymphocyte pERK” value (ERK [4]; 300 mg/kg po)?
Answer: The value was “Y”.

Question: And the “Reduction of deficit (Y/N): Prefrontal cortex pGSK3βS(ser9)” value (GSK3β [5]; 2 month old mice, 150 mg/kg ip)?
Answer: The value was “N”.

Question: And the “Reduction of deficit (Y/N): Striatum pGSK3β(ser9)” value (GSK3β [5]; 2 month old mice, 150 mg/kg ip)?
Answer: Its value is “Y”.

Question: And the “Reduction of deficit (Y/N): Phosphorylation of brain GSK3β (tyr219/tyr279)” value (GSK3β [5]; 6 month old mice, 150 mg/kg i.p.)?
Answer: Its value is “N”.

Question: And the “Reduction of deficit (Y/N): Lymphocyte pGSK3β(tyr219/tyr279)” value (GSK3β [6]; 150 mg/kg ip)?
Answer: The value was “N”.

Question: What about the “Reduction of deficit (Y/N): Lymphocyte pGSK3β(tyr219/tyr279)” value (GSK3β [6]; 150 mg/kg po) of the same compound?
Answer: Its value is “N”.

Question: What about the “Reduction of deficit (Y/N): Lymphocyte pGSK3β(tyr219/tyr279)” value (GSK3β [6]; 300 mg/kg po) of the same compound?
Answer: The value was “N”.

Question: And the “Reduction of deficit (Y/N): Hippocampal pS6K1(ser235/236)” value (S6K1)?
Answer: Its value is “N”.

Question: What about the “Reduction of deficit (Y/N): Hippocampal pS6K1(ser240/244)” value (S6K1) of the same compound?
Answer: The value was “N”.

Question: What about the “Reduction of deficit (Y/N): Prefrontal cortex pS6K1(ser235/236)” value (S6K1) of the same compound?
Answer: Its value is “N”.

Question: And the “Reduction of deficit (Y/N): Prefrontal cortex pS6K1(ser240/244)” value (S6K1)?
Answer: The value was “N”.

Question: What about the “Reduction of deficit (Y/N): Striatum pS6K1(ser235/236)” value (S6K1) of the same compound?
Answer: Its value is “N”.

Question: And the “Reduction of deficit (Y/N): Striatum pS6K1(ser240/244)” value (S6K1)?
Answer: The value was “N”.

Question: And the “Reduction of deficit (Y/N): Neuronal filopodia density” value [7]?
Answer: Its value is “Y”.

Question: What about the “Reduction of deficit (Y/N): Neuronal filopodia length” value [7] of the same compound?
Answer: Its value is “Y”.

Question: And the “Reduction of deficit (Y/N): Neuronal filopodia width” value [7]?
Answer: Its value is “Y”.

Question: And the “Reduction of deficit (Y/N): De novo hippocampal protein synthesis” value [8]?
Answer: The value was “Y”.
